Test results: article PMC8636562, “Mounting, structure and autocleavage of a type VI secretion-associated Rhs polymorphic toxin” (Nature Communications, 2021)

Legend:
Experiment in all cases: pull-down; three proteins co-produced in E. coli BL21(DE3) (Strep-tagged EagR, FLAG-tagged Rhs1 and His6-tagged VgrG, or their truncated variants); cleared cell extract on Strep-Tactin resin, 1 h at 4 °C, buffer A (50 mM Tris-HCl pH 8.5, 250 mM NaCl, 1 mM TCEP), eluted with 2.5 mM desthiobiotin; Coomassie and immunoblot
[1] = biological target: T1, Photorhabdus laumondii EagR chaperone (Plu0354), C-terminally Strep-tagged (Photorhabdus laumondii (P. luminescens subsp. laumondii TTO1)) (UniProt Q7N9H9)
T1 sequence: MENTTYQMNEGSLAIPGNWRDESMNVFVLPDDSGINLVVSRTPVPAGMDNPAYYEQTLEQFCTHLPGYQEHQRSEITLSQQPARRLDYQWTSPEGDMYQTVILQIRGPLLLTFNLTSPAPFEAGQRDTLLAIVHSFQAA

[2] = biological target: Rhs1 C-terminal truncation: complete N-terminus prePAAR-PAAR-postPAAR, FLAG-tagged (Photorhabdus laumondii (P. luminescens subsp. laumondii TTO1)) (UniProt Q7N9I0)
[3] = biological target: Rhs1 N-terminal truncation deleted of prePAAR, FLAG-tagged (Photorhabdus laumondii (P. luminescens subsp. laumondii TTO1))
[4] = biological target: Rhs1 N-terminal truncation deleted of prePAAR-PAAR, FLAG-tagged (Photorhabdus laumondii (P. luminescens subsp. laumondii TTO1))

| Molecule | binding [1] | binding [2] | binding [3] | binding [4] |
| --- | --- | --- | --- | --- |
| Rhs1 N-terminal truncation deleted of prePAAR-PAAR, FLAG-tagged (domain or fragment) | binds | – | – | – |
| Rhs1 N-terminal truncation deleted of prePAAR, FLAG-tagged (domain or fragment) | binds | – | – | – |
| Rhs1 C-terminal truncation: complete N-terminus prePAAR-PAAR-postPAAR, FLAG-tagged (from UniProt Q7N9I0) (domain or fragment) | binds | – | – | – |
| Rhs1 N-terminal truncation deleted of prePAAR-PAAR-postPAAR, FLAG-tagged (domain or fragment) | no binding | – | – | – |
| Photorhabdus laumondii VgrG (Plu0355), N-terminally 6xHis-TEV-tagged (protein, UniProt Q7N9H8 1-631) MSFQKKTANAGNLAQQIADRLSPQSAGGLQFTLTAGGLPPHTFVVAGFTLHEALSTPFTLTVSLASADPAIDFAAVLDQSATLTILRAGKVERTVTGMVASFVQGNTGKHQTRYDMTIRPDMWRTTLRQNARIFQQQDIKTILTTLLKENGVRDVAFSLRNPHPEREFCVQYRETDFDFLQRLTAEEGIFYFFEFTGNKNTLVFADDAGSVVKGPVLPYHPDDAEQARQLCITRLTRQAQVRPAVVELKDYTFKNPAWAAEFRHQMREQDLQHTGYEHFDFPGRFKDEQHGADFTRYRLEALRNNALTGDGDSNAATMQPGVLFTLTGHPRPDLNRCWQLVGVTHHGSQPQALEQAAGESGTVMRNDFTFIADNQHWRPAPLPKPAMEGPQIAKVVGPAGEEIYCDAYGRIRLQFLWDRYGRSNDSSSCWIRVTQPWAGQGWGMLAIPRIGQEVVVDFLNGDPDQPIVTGRTYHASNLPPGALPGSKTQMTFRSKTHKGDGYNELRFEDAKGSEALALHAQRDMNTVVLNNRETRVMNDHTESIGHNQMLSVRNDRHKEVTGNEVSAITGLRQITVEKDSLLNVKNNIQIQARAGGIEIATAGGSITIDNAGNISIQGANITINGKQVNVN | – | binds | no binding | no binding |

No constants are given. Whether binding was seen depends on the method and setting. In cells and extracts the contact can be indirect. For some of these results: Binding calls can cover weak binding; strength is not graded here. Sequences can lack the tags named with a protein.
